Results published in the supplement of paper PMC10849652.
The other results are listed elsewhere or left out.

Chains of the proteins cited; added tags and fusions are not shown. Lines headed by an entry give the natural chain unless they say otherwise; changes in a name come on top.
UniProt O75427: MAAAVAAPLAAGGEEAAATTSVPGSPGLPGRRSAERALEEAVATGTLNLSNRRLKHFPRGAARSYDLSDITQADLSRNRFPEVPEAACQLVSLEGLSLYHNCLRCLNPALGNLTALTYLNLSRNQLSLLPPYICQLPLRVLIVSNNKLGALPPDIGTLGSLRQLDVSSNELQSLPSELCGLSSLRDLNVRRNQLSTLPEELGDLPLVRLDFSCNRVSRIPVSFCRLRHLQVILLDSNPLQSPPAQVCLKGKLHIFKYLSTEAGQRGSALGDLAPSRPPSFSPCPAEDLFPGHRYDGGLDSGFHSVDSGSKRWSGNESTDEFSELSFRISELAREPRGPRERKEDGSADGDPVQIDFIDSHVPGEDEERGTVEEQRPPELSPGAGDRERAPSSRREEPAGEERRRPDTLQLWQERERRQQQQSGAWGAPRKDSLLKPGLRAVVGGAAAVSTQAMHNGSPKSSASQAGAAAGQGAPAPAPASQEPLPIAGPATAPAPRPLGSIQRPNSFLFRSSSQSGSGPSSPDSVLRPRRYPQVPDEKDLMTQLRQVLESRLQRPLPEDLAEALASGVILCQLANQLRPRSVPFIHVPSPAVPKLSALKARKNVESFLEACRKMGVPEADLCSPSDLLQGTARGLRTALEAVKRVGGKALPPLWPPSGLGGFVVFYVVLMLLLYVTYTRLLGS
UniProt Q9UIC8: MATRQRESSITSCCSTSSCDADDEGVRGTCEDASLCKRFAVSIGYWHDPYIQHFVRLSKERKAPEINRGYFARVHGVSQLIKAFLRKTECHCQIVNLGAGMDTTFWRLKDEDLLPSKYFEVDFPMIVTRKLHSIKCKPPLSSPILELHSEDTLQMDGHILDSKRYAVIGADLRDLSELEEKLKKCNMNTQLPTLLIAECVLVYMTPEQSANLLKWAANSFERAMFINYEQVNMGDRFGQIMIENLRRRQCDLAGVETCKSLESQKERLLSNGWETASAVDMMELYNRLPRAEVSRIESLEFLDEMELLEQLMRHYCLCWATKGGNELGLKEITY
UniProt Q9UFC0: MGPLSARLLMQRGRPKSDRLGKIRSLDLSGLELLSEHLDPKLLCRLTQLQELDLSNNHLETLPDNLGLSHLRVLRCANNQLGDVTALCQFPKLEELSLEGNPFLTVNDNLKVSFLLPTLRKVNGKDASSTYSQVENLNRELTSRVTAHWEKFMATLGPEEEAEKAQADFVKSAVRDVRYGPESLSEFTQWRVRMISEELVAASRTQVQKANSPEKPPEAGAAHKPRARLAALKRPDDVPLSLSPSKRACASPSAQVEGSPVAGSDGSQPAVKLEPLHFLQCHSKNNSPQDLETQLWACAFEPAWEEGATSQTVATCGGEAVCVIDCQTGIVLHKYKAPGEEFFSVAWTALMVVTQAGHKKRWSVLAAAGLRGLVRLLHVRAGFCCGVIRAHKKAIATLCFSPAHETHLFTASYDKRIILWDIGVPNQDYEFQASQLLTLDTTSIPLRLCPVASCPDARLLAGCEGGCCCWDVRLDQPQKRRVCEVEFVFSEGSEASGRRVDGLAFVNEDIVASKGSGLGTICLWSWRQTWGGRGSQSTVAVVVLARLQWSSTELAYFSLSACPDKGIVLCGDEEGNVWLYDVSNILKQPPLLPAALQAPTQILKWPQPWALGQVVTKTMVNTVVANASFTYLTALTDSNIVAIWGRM
UniProt P62312: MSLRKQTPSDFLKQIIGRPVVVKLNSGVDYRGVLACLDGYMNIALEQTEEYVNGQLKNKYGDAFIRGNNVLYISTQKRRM
UniProt Q12907: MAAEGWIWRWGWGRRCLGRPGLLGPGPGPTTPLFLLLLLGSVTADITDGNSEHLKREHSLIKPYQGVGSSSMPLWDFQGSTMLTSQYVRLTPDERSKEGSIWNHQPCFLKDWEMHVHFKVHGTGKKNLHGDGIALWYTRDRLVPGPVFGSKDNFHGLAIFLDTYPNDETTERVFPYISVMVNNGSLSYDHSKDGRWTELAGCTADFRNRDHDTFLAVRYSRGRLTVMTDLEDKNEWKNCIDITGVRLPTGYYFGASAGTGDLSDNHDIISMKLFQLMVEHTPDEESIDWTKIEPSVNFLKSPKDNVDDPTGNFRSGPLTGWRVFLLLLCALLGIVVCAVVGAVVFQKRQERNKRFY
UniProt Q96GY3: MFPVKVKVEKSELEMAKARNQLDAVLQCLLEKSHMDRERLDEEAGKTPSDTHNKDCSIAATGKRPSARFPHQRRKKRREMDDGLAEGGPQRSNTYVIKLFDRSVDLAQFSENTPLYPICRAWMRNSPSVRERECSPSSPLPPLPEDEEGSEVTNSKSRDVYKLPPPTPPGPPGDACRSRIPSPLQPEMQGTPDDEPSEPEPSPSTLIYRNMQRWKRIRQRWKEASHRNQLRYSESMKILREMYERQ
UniProt P48449: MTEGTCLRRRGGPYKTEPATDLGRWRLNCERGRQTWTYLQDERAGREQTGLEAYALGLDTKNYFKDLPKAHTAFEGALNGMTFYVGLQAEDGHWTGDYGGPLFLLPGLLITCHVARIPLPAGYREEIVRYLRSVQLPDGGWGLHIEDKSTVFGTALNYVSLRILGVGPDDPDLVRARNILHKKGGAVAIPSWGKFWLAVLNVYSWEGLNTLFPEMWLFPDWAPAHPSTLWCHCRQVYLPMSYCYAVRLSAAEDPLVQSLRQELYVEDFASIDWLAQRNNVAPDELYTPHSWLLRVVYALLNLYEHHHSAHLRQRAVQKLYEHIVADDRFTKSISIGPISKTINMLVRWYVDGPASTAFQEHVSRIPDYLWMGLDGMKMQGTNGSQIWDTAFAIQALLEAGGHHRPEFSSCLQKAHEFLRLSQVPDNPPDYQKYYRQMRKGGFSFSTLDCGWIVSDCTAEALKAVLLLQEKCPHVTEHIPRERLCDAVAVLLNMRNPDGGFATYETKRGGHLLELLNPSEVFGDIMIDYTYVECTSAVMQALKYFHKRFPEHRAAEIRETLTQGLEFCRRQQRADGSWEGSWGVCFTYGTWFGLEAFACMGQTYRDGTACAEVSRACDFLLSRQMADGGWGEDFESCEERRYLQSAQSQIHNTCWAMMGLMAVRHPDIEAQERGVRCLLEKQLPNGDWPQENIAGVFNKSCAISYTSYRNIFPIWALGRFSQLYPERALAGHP
UniProt Q96NW7: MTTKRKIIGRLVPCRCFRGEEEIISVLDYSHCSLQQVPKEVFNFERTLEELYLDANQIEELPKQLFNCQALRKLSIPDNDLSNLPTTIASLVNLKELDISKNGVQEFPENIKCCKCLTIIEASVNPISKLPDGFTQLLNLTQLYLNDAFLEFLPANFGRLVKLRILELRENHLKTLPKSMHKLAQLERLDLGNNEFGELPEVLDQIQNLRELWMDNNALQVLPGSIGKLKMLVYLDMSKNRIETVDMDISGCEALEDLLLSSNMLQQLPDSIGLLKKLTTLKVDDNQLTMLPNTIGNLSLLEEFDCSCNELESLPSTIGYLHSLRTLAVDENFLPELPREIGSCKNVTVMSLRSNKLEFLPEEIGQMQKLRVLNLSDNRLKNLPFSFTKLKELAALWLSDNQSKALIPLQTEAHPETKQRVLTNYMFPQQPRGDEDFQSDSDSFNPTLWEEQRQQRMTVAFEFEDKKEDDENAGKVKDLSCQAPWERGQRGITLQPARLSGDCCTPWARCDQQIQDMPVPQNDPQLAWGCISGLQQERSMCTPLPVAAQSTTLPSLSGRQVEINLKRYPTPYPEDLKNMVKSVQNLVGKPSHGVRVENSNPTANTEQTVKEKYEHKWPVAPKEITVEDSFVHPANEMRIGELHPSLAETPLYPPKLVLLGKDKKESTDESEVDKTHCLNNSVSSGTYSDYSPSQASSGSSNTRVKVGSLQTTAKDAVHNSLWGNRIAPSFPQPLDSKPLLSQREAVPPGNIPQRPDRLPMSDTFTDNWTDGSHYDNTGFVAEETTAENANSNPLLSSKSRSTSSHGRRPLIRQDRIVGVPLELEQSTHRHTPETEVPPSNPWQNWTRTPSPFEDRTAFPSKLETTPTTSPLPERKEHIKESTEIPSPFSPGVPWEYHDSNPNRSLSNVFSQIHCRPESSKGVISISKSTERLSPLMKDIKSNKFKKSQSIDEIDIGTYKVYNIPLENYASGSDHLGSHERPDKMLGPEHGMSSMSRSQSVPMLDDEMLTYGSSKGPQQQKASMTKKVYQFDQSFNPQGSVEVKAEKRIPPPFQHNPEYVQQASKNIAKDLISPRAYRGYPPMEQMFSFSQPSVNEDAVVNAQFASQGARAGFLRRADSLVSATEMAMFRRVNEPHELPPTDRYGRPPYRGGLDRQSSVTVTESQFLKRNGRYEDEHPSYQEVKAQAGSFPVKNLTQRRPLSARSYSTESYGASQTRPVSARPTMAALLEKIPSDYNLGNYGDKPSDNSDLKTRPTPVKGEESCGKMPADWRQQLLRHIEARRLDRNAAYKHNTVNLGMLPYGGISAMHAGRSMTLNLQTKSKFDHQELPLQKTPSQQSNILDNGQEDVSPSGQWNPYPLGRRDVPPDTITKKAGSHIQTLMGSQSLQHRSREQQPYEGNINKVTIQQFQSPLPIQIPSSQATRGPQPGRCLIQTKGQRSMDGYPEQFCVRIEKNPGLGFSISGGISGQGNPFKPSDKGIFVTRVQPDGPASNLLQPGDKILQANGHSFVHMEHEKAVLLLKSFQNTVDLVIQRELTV
UniProt Q8TDW0: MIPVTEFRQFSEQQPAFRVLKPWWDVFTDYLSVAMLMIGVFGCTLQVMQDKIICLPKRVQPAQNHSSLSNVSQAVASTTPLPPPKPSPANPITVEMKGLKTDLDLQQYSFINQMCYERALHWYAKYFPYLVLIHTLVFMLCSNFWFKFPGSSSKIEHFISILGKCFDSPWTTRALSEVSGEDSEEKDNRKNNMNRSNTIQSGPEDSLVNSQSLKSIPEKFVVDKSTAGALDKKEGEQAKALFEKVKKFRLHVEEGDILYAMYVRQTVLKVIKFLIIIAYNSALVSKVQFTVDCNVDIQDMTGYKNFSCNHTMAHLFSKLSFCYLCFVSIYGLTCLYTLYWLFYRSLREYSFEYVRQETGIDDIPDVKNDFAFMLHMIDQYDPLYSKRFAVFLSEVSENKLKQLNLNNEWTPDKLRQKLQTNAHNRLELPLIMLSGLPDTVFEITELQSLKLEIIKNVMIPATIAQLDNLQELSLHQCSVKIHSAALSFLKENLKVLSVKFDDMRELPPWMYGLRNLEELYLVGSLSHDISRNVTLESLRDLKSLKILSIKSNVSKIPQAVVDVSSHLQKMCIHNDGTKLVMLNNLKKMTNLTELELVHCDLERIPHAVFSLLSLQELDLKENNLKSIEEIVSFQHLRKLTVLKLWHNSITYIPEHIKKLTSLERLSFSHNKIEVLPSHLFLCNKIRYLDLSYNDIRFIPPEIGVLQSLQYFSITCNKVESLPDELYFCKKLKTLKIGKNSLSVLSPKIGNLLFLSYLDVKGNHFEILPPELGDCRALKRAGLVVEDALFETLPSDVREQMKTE
UniProt P62310: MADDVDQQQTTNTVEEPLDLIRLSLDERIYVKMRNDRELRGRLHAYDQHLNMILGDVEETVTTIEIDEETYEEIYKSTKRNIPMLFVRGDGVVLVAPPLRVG
UniProt P80188: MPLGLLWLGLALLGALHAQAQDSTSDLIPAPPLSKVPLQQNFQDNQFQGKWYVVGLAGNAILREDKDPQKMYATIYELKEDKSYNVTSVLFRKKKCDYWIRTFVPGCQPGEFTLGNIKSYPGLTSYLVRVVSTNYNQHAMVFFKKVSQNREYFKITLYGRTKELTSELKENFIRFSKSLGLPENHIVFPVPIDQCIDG
UniProt O95777: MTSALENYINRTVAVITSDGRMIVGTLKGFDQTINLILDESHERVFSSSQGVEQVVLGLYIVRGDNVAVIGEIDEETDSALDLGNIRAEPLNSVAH
UniProt Q9BX40: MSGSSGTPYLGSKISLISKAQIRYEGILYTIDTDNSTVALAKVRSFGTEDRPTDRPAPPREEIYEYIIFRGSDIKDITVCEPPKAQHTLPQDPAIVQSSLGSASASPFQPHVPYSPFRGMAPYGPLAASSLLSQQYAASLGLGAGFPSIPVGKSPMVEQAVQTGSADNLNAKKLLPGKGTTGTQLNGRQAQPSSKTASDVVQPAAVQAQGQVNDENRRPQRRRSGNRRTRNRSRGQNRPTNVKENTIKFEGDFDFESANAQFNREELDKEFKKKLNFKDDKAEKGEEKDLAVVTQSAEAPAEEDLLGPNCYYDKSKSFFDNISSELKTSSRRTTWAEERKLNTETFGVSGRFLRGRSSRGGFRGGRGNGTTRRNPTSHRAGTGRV
UniProt Q9H0V9: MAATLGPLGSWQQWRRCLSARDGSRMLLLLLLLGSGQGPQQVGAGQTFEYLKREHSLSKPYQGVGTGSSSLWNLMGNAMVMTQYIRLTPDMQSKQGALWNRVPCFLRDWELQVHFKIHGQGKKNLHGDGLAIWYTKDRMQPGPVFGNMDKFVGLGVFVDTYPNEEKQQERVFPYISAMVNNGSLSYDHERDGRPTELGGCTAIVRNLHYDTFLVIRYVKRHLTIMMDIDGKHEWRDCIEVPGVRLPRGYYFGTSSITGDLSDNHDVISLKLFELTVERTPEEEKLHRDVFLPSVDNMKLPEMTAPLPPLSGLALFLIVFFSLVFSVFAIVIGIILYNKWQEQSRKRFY

Columns and labels:
Assay in all cases: log2 fold change, soluble protein after heating vs DMSO (PISA); higher = thermal stabilisation; K562 lysate, 10 uM; active = over 0.2 and 3.5 SD of the protein, either way, in both replicates (recomputed)
[1] = compound: CS(=O)(=O)CCNCc1ccc(-c2ccc3ncnc(Nc4ccc(OCc5cccc(F)c5)c(Cl)c4)c3c2)o1 [lapatinib]
Summary of the method: (§1)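 To prepare the extract, K562 pellets were dounce-homogenised in PBS pH 7.4 with 1 mM MgCl2, giving crude material at 1 mg/mL protein. This was treated with 10 μM compound for 30 min, then heated in aliquots for 3 min over 48°C-58°C before pooling and addition of NP-40 to 0.5% at 4°C. Centrifugation at 21,000xg for 90 min left soluble protein in the supernatant, which TMTpro 16plex LC-MS/MS quantified with equalised channel sums. Results are log-two fold changes in thermal stability compared with solvent controls, from duplicates.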

[2] = compound: CS(=O)(=O)N1CCN(Cc2cc3nc(-c4cccc5[nH]ncc45)nc(N4CCOCC4)c3s2)CC1 [pictilisib]
Summary of the method: as §1

[3] = compound: C[C@@H](Oc1cc(-c2cnn(C3CCNCC3)c2)cnc1N)c1c(Cl)ccc(F)c1Cl [crizotinib]
Summary of the method: as §1

[4] = compound: C[C@H](C1=CC=C(C=C1)C(=O)NC2=C3C=CNC3=NC=C2)N
Summary of the method: as §1

[5] = compound: C[C@H](Nc1ncnc2nc[nH]c12)c1cc2cccc(Cl)c2c(=O)n1-c1ccccc1 [duvelisib]
Summary of the method: as §1

[6] = compound: Cc1cc(Nc2cc(CN3CCOCC3)c3nc(C)c(Cc4ccc(Cl)cc4F)n3n2)n[nH]1 [gandotinib]
Summary of the method: as §1

[7] = compound: Cc1cc(Nc2cc(N3CCN(C)CC3)nc(Sc3ccc(NC(=O)C4CC4)cc3)n2)n[nH]1 [tozasertib]
Summary of the method: as §1

[8] = compound: Cc1ccc(-n2nc(C(C)(C)C)cc2NC(=O)Nc2ccc(OCCN3CCOCC3)c3ccccc23)cc1 [doramapimod]
Summary of the method: as §1

[9] = compound: Cc1ccc(NC(=O)c2ccc(CN3CC[C@H](N(C)C)C3)c(C(F)(F)F)c2)cc1Nc1nccc(-c2cncnc2)n1 [bafetinib]
Summary of the method: as §1

[10] = compound: Cc1cccc(CC(=O)N2CCc3c2ccc(-c2cn(C)c4ncnc(N)c24)c3F)n1
Summary of the method: as §1

Measured: log2 fold change

LRRC20 (UniProt Q8TCA0)
inactive: [1] 0.03 | [2] 0.09 | [3] -0.026 | [4] 0.032 | [5] 0.016 | [6] -0.082 | [7] -0.046 | [8] 0.08 | [9] -0.078 | [10] -0.068

LIG1 (UniProt P18858)
inactive: [1] -0.034 | [2] 0.017 | [3] -0.012 | [4] 0.065 | [5] -0.017 | [6] -0.061 | [7] -0.009 | [8] 0.003 | [9] -0.018 | [10] 0.008

LRCH4 (UniProt O75427)
inactive: [1] -0.055 | [2] 0.05 | [3] -0.039 | [4] 0.042 | [5] -0.052 | [6] -0.095 | [7] 0 | [8] 0.068 | [9] 0.022 | [10] -0.002

LNPEP (UniProt Q9UIQ6)
inactive: [1] 0.008 | [2] -0.031 | [3] -0.02 | [4] -0.055 | [5] 0.001 | [6] 0.043 | [7] -0.022 | [8] 0.013 | [9] -0.013 | [10] 0

LCMT1 (UniProt Q9UIC8)
inactive: [1] -0.008 | [2] -0.013 | [3] 0.004 | [4] 0.051 | [5] -0.017 | [6] -0.039 | [7] 0.022 | [8] -0.015 | [9] -0.025 | [10] -0.023

LRWD1 (UniProt Q9UFC0)
inactive: [1] -0.026 | [2] -0.049 | [3] -0.199 | [4] -0.011 | [5] 0 | [6] -0.102 | [7] -0.007 | [8] 0.029 | [9] -0.082 | [10] 0.019

LSM6 (UniProt P62312)
inactive: [1] -0.015 | [2] -0.002 | [3] 0.065 | [4] 0.029 | [5] 0.019 | [6] -0.021 | [7] -0.018 | [8] -0.054 | [9] 0.031 | [10] -0.092

LIAS (UniProt O43766)
inactive: [1] -0.019 | [2] -0.01 | [3] 0.06 | [4] -0.044 | [5] 0.065 | [6] 0.038 | [7] -0.003 | [8] -0.047 | [9] -0.004 | [10] 0.017

LMAN2 (UniProt Q12907)
inactive: [1] -0.031 | [2] -0.003 | [3] -0.005 | [4] -0.124 | [5] -0.01 | [6] 0.038 | [7] -0.024 | [8] 0 | [9] -0.016 | [10] 0.094

LMBRD1 (UniProt Q9NUN5)
inactive: [1] -0.027 | [2] 0.045 | [3] 0.01 | [4] 0.083 | [5] -0.024 | [6] 0.122 | [7] -0.07 | [8] -0.01 | [9] 0.018 | [10] -0.049

LETM1 (UniProt O95202)
inactive: [1] -0.001 | [2] 0.004 | [3] -0.043 | [4] 0.015 | [5] -0.018 | [6] 0.03 | [7] 0.005 | [8] -0.01 | [9] -0.049 | [10] -0.085

LIMD1 (UniProt Q9UGP4)
inactive: [1] 0.039 | [2] -0.003 | [3] -0.019 | [4] -0.015 | [5] -0.015 | [6] 0.004 | [7] -0.004 | [8] -0.017 | [9] -0.019 | [10] 0.04

Reprinted at random: two records from the list
LIMD1 (UniProt Q9UGP4)
inactive: [1] 0.039 | [2] -0.003 | [3] -0.019 | [4] -0.015 | [5] -0.015 | [6] 0.004 | [7] -0.004 | [8] -0.017 | [9] -0.019 | [10] 0.04

LMBRD1 (UniProt Q9NUN5)
inactive: [1] -0.027 | [2] 0.045 | [3] 0.01 | [4] 0.083 | [5] -0.024 | [6] 0.122 | [7] -0.07 | [8] -0.01 | [9] 0.018 | [10] -0.049

The list goes on:

LIN37 (UniProt Q96GY3)
inactive: [1] 0.039 | [2] -0.158 | [3] -0.119 | [4] -0.025 | [5] -0.056 | [6] 0.041 | [7] 0.013 | [8] 0.111 | [9] 0.022 | [10] 0.027

LRCH3 (UniProt Q96II8)
inactive: [1] -0.008 | [2] -0.08 | [3] -0.114 | [4] -0.046 | [5] -0.012 | [6] 0.027 | [7] 0.012 | [8] 0.099 | [9] -0.104 | [10] 0.059

LCLAT1 (UniProt Q6UWP7)
inactive: [1] -0.014 | [2] 0.014 | [3] -0.07 | [4] -0.038 | [5] 0.013 | [6] 0.01 | [7] 0.018 | [8] -0.003 | [9] 0.011 | [10] 0.063

LSS (UniProt P48449)
inactive: [1] 0 | [2] 0.11 | [4] 0.01 | [5] 0.008 | [6] 0.028 | [7] 0.02 | [8] 0.031 | [9] 0.13 | [10] -0.013
active: [3] 0.252

LRRC7 (UniProt Q96NW7)
inactive: [1] -0.048 | [2] 0.041 | [3] 0.065 | [4] -0.025 | [5] 0.083 | [6] -0.07 | [7] -0.018 | [8] 0.001 | [9] 0.112 | [10] 0.093

LIN54 (UniProt Q6MZP7)
inactive: [1] -0.042 | [2] -0.056 | [3] -0.02 | [4] -0.029 | [5] 0.038 | [6] 0.011 | [7] 0.019 | [8] -0.033 | [9] -0.082 | [10] 0.085

LSM1 (UniProt O15116)
inactive: [1] 0.033 | [2] -0.033 | [3] 0.104 | [4] 0.017 | [5] -0.016 | [6] 0.03 | [7] -0.012 | [8] 0 | [9] 0.054 | [10] -0.045

LRRC8C (UniProt Q8TDW0)
inactive: [1] 0.114 | [2] -0.041 | [3] 0.018 | [4] -0.027 | [5] 0.133 | [6] -0.022 | [7] -0.051 | [8] -0.001 | [9] -0.207 | [10] -0.002

LSM3 (UniProt P62310)
inactive: [1] 0.03 | [2] -0.012 | [3] 0.012 | [4] 0.007 | [5] 0.05 | [6] 0 | [7] 0.006 | [8] 0.04 | [9] 0.018 | [10] 0.053

LRRC47 (UniProt Q8N1G4)
inactive: [1] 0 | [2] -0.008 | [3] 0.029 | [4] -0.047 | [5] 0 | [6] 0.014 | [7] -0.024 | [8] 0.01 | [9] 0.007 | [10] 0.018

LGALS8 isoform 2 (UniProt O00214)
inactive: [1] 0.01 | [2] 0.137 | [3] -0.033 | [4] -0.017 | [5] -0.013 | [6] -0.025 | [7] 0 | [8] -0.001 | [9] -0.019 | [10] -0.004

LCN2 (UniProt P80188)
inactive: [1] 0.028

LLGL1 (UniProt Q15334)
active: [4] 0.263
inactive: [1] -0.005 | [2] -0.058 | [3] -0.025 | [5] 0.096 | [6] -0.011 | [7] 0.054 | [8] 0.006 | [9] -0.104 | [10] -0.019

LSM8 (UniProt O95777)
inactive: [1] -0.005 | [2] -0.067 | [3] 0.02 | [4] -0.028 | [5] 0.002 | [6] 0.007 | [7] 0.037 | [8] 0.016 | [9] 0.176 | [10] 0.026

LRSAM1 (UniProt Q6UWE0)
inactive: [1] 0.026 | [2] -0.021 | [3] 0.008 | [4] -0.021 | [5] -0.018 | [6] 0.004 | [7] -0.002 | [8] 0.027 | [9] 0.045 | [10] 0.014

LRRC4B (UniProt Q9NT99)
inactive: [1] -0.106 | [2] 0.135 | [3] -0.051 | [4] 0.006 | [5] 0.063 | [6] -0.019 | [7] 0.024 | [8] -0.093 | [9] 0.063 | [10] -0.046

LSM14B isoform 2 (UniProt Q9BX40)
inactive: [1] 0.039 | [2] -0.022 | [3] 0.032 | [4] -0.064 | [5] -0.02 | [6] -0.009 | [7] -0.053 | [8] 0.149 | [9] -0.158 | [10] 0.034

LMAN2L isoform 2 (UniProt Q9H0V9)
inactive: [1] -0.05 | [2] -0.031 | [3] -0.034 | [4] -0.023 | [5] -0.02 | [6] -0.01 | [7] 0.014 | [8] -0.055 | [9] -0.035 | [10] 0.069
